PubChem BioAssay AID504793 | Drosophila RNAi Screening Center, 2011
Purpose: 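Genes required for cells to halt at G2/M after double-strand DNA breaks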 (primary screen). System: Drosophila S2R+ cells. Reagents: long dsRNA against Drosophila genes, about 0.25 µg dsRNA per well. Timing: 4 days of dsRNA, then 4 hours of drug before read-out. Conditions: doxorubicin 0.5 µM for 4 hours to cause double-strand breaks, in cells also given a low, harmless dose of dsRNA against nbs to sensitise the assay. Detection: 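Per-well count of mitotic cells stained for phospho-histone H3 after doxorubicin exposure, used as mitotic index; counts are raw and not normalised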. Scale: mitotic cells: higher = more cells in mitosis, weaker G2 arrest. Active means: 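a call needs confirmation in secondary tests, with other dsRNAs and a check of mitotic timing without damage, not just a high primary count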. Calls: active = confirmed in follow-up tests; inactive = not confirmed.
The screen tested about 23,000 reagents; below is a random part of those that have a named target and a result. Over the whole deposit, 62 (0.27%) got an active call. 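Calls come from follow-up tests whose scores are not deposited, so confirmed genes may have low counts here; counts are not normalised per plate.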 Raw values are not corrected between plates.

no.	gene knocked down	amplicon	mitotic cells, replicate 1	call
1	Atg101	DRSC20020	1	inactive
2	Gp210	DRSC04861	5	inactive
3	Gp210	DRSC04900	6	inactive
4	CG32651	DRSC18941	4	inactive
5	spel1	DRSC03617	5	inactive
6	spel1	DRSC29609	4	inactive
7	mtDNA-helicase	DRSC02912	3	inactive
8	mbf1	DRSC11365	7	inactive
9	Amt	DRSC16055	4	inactive
10	Amt	DRSC27970	7	inactive
11	Hsp70Bc	DRSC16053	3	inactive
12	dve	DRSC04680	4	inactive
13	dve	DRSC28692	6	inactive
14	Ugt37D1	DRSC02645	3	inactive
15	Ugt37D1	DRSC23980	3	inactive
16	AstC	DRSC02403	6	inactive
17	CG7579	DRSC10885	4	inactive
18	CG17027	DRSC10238	9	inactive
19	CG17027	DRSC25560	5	inactive
20	Hpf1	DRSC12202	4	inactive

Entries above whose target name begins with S or s (2):
gene knocked down	amplicon	mitotic cells, replicate 1	call
spel1	DRSC03617	5	inactive
spel1	DRSC29609	4	inactive

Additional records:
no.	gene knocked down	amplicon	mitotic cells, replicate 1	call
21	Trpm	DRSC06629	11	inactive
22	Trpm	DRSC21566	14	inactive
23	Trpm	DRSC27597	13	inactive
24	Trpm	DRSC29042	9	inactive
25	U4-U6-60K	DRSC10624	8	inactive
26	S2P	DRSC07311	7	inactive
27	S2P	DRSC27864	8	inactive
28	CG42404	DRSC15558	5	inactive
29	CG7231	DRSC03034	4	inactive
30	Alh	DRSC12447	9	inactive
31	Alh	DRSC12487	2	inactive
32	Alh	DRSC12488	6	inactive
33	Alh	DRSC28926	5	inactive
34	wb	DRSC01375	2	inactive
35	wb	DRSC03634	4	inactive
36	wb	DRSC23003	8	inactive
37	wb	DRSC39164	9	inactive
38	CG5639	DRSC15851	13	inactive
39	Eip63E	DRSC08658	5	inactive
40	Sdr	DRSC15517	11	inactive
41	Dhx15	DRSC06036	10	inactive
42	Dhx15	DRSC30094	5	inactive
43	mad2	DRSC10274	6	inactive
44	Faf2	DRSC03325	2	inactive
45	CG31624	DRSC02617	13	inactive
